Experimental data reported in patent US20230332164A1 (SYNLOGIC OPERATING, published 2023).
Results are given in words; binding and its absence hold for the method and conditions named. Some results given as binding are weak or reduced against the parent protein; the word gives no strength. For some of these results: Tags and fused reporters may be left off the sequences shown.

The chains behind the UniProt entries cited, without tags or fusion partners. Residues count along the entry.
UniProt Q02242, residues 25-288: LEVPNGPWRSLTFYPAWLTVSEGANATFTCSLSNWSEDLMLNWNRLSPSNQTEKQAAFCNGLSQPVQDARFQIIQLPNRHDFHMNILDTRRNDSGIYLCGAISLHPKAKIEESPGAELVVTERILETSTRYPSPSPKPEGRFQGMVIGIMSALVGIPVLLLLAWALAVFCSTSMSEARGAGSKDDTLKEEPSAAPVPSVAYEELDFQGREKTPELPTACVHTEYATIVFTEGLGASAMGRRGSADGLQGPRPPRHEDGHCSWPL

B1: secreted anti-PD1-scFv-V5 (FLAG-J43scFv-V5-HIS secreted from E. coli Nissle) (scFv, not shown: small tags and cut ends)
scFv: MQLEVRLLESGGGLVKPEGSLKLSCVASGFTFSDYFMSWVRQAPGKGLEWVAHIYTKSYNYATYYSGSVKGRFTISRDDSRSMVYLQMNNLRTEDTATYYCTRDGSGYPSLDFWGQGTQVTVSSGGGGSGGGGSGGGGSYELTQPPSASVNVGETVKITCSGDQLPKYFADWFHQRSDQTILQVIYDDNKRPSGIPERISGSSSGTTATLTIRDVRAEDEGDYYCFSGYVDSDSKLYVFGSGTQLTVLGKGELNSKLEGKPIPNPLLGLDSTRTGHHHHHH
B2: WT mSIRPα (32-373), secreted by SYN2996 (receptor)
chain: VDYKDDDDKQLGGGKELKVTQPEKSVSVAAGDSTVLNCTLTSLLPVGPIKWYRGVGQSRLLIYSFTGEHFPRVTNVSDATKRNNMDFSIRISNVTPEDAGTYYCVKFQKGPSEPDTEIQSGGGTEVYVLAKPSPPEVSGPADRGIPDQKVNFTCKSHGFSPRNITLKWFKDGQELHHLETTVNPSGKNVSYNISSTVRVVLNSMDVHSKVICEVAHITLDRSPLRGIANLSNFIRVSPTVKVTQQSPTSMNQVNLTCRAERFYPEDLQLIWLENGNVSRNDTPKNLTKNTDGTYNYTSLFLVNSSAHREDVVFTCQVKHDQQPAITRNHTVLGLAHSSDQGSMQTFPGNNATHNWNKGELNSKLEGKPIPNPLLGLDSTDPNSSSVDHHHHHH
B3: anti-mCD47 scFv, secreted by SYN3161 (scFv)
scFv: QVKLLQSGAALVKPGASVKMSCQASGYSFTDYWVTWVKQSHGQSLEWIGEIYPSNTVTNFNDNFKGKATLTVDKSTSTAYMELSRLTSEDSAIYYCTRIGNSGYRVGWFIYWGQGTLVTVLSGGGGSGGGGSGGGGSDTVLTQSPALAVSPGERVTISCKASESVSSHMHWYQQKPGQQPKLLIYKASNLASGVPARFSGSGSGTDFTLTIDPVEADDTATYFCQQGWNGPFTFGAGTRLELKRADAAGSGELGGSGKPIPNPLLGLDSTGSGHHHHHH

Legend:
[1] = target: PD1 on the surface of mouse EL4 cells (mouse) (UniProt Q02242); assay: flow cytometry on EL4 cells, 0, 2, 5 and 15 ul of extract (FIG. 20)
[2] = target: PD1 on the surface of mouse EL4 cells (mouse) (UniProt Q02242); assay: flow cytometry on EL4 cells (FIG. 19 legend)
[3] = target: PD1 on the surface of mouse EL4 cells (mouse) (UniProt Q02242); assay: flow cytometry on EL4 cells, anti-V5-FITC detection; dose-dependent staining at 0, 2, 5 and 15 uL
CD47 on mouse CT26 cells [4] = target: T1, CD47 on mouse CT26 cells (mouse, UniProt Q61735 19-303); assay: flow cytometry on CT26 cells (FIG. 24 legend)
T1 construct: whole, on cells; also called CD47 on CT26 cells; murine CD47 on CT26 cells
T1 sequence (looked up): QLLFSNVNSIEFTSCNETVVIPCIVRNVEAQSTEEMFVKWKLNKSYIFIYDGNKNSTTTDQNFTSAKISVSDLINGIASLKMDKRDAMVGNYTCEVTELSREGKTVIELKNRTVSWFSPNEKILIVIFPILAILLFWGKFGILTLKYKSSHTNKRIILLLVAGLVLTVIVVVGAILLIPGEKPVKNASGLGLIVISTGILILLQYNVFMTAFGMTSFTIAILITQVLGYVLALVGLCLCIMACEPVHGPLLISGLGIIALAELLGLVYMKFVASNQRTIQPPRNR

[5] = target: T2, mouseCD47, plate coating (mouse) (UniProt Q61735); assay: ELISA, mCD47-coated plate
T2 sequence (looked up): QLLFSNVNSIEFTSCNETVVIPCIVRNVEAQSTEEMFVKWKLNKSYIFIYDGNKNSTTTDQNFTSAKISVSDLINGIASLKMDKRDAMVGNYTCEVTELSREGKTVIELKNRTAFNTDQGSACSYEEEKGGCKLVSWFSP

CD47 on mouse CT26 cells [6] = target: T1, CD47 on mouse CT26 cells; assay: flow cytometry on CT26 cells, 10x concentrated supernatant

Binder	binding [1]	binding [2]	binding [3]	binding (CD47 on mouse CT26 cells [4])	binding [5]	binding (CD47 on mouse CT26 cells [6])
B1	binds	binds	binds	–	–	–
B2	–	–	–	binds	binds	binds
B3	–	–	–	–	binds	–
